For one substance, binding results are on record in US7598352B2, “Method of identifying polypeptide monobodies which bind to target proteins and use thereof” (University of Rochester, priority 2000, dated 2009).

Amino acid sequences for entries named in this document (tags omitted). Residues count along the entry.
UniProt Q15788, residues 570-780: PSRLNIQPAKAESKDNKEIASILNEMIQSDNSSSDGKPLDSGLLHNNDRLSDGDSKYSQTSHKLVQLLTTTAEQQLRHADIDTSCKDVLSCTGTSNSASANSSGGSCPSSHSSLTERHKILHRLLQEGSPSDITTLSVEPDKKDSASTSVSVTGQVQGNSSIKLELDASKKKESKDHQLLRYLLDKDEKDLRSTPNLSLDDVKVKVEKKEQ

The target of assay [1] is LexA-ERα-EF fusion protein (E and F domains of Estrogen Receptor α, residues 297-595) (human). The assay is described as follows: yeast two-hybrid quantitative β-galactosidase assay, with different agonists.
For assay [2] the target is unchanged. The assay is described as follows: yeast two-hybrid quantitative β-galactosidase assay, with E2.

No constants are given. Whether binding was seen depends on the method and setting. Some entries that bind do so weakly or less than the wild type.

On to “SRC-1 (steroid receptor coactivator-1) NR-box fragment, residues 570-780, activation domain fusion (from UniProt Q15788 570-780)”, for which the binding result in assay [1] and in assay [2] was “binds” each time.
